Results from patent publication US20260035363A1, “COMPOUNDS AND METHODS OF USE THEREOF AS ANTIBACTERIAL AGENTS” (priority 2019, published 2026).
At least one read-out could not be matched to a standard name with certainty.

Tests used:
[1] = tested on: Mycobacterium tuberculosis (Mtb-GFP; H37Rv pMSP12::GFP); format: cell-based; conditions: cholesterol carbon source, pH 6.8, 7-day growth, GFP fluorescence; lowest concentration inhibiting 95% of growth
[2] = tested on: Mycobacterium tuberculosis (Mtb-GFP; H37Rv pMSP12::GFP); format: cell-based; conditions: glucose carbon source, pH 6.8, 7-day growth, GFP fluorescence; lowest concentration inhibiting 95% of growth

CN=S1(=O)CCC(F)(c2c(F)cc(C3=NO[C@@H](Cn4ccnn4)C3)cc2F)CC1 (single isomer, unassigned) [Example 7]
Mtb Cho MITC95 [1]: 2.34 µM | Mtb Glu MITC95 [2]: 2.73 µM

CN=S1(=O)CCC(F)(c2c(F)cc(C3=NO[C@@H](CNC(=O)OC)C3)cc2F)CC1 (single isomer, unassigned) [Example 9]
Mtb Cho MITC95 [1]: 2.34 µM | Mtb Glu MITC95 [2]: 2.73 µM

N=S1(=O)CCC(F)(c2c(F)cc(C3=NO[C@@H](Cn4ccnn4)C3)cc2F)CC1 (stereo partly drawn) [Example 39, 4-(2,6-Difluoro-4-{(5R)-5-[(1H-1,2,3-triazol-1-yl)methyl]-4,5-dihydro-1,2-oxazol-3-yl}phenyl)-4-fluoro-1-imino-1λ^6-thian-1-one]
Mtb Cho MITC95 [1]: 1.56 µM | Mtb Glu MITC95 [2]: 0.78 µM
